Measurements reported in PubChem BioAssay AID652259 (Drosophila RNAi Screening Center, 2013).
In all, the deposit lists about 22,000 reagents; below is an unselected part of those with a known target gene and a result. Over the whole deposit, 233 (1.1%) are marked active. 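Light values are raw, unnormalised plate reads; the ratio scores behind the reporter calls were not deposited.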 Reagents against one gene are numbered here. A plus sign joins genes that one reagent is predicted to hit. Not given: the amount of reagent, the time to read-out, the dose of the treatment.

Purpose: 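Identify new Wingless signalling regulators in fly cells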 (primary screen)
Cells: Drosophila clone 8 imaginal disc epithelial cells
Reagents: long dsRNA against Drosophila genes
Challenge: pathway stimulated by co-transfected Wingless expression plasmid
Measured: 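Firefly luciferase from a tcf-site Wingless reporter, measured alongside co-transfected Renilla luciferase that tracks transfection; pathway stimulated by a Wingless plasmid; the firefly-to-Renilla ratio is not deposited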
Reading the numbers: firefly reporter light: higher = more Wg reporter light, before normalisation; Renilla control light: higher = more transfected or surviving cells
Call rule: 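a knock-down is a candidate when at least two out of four statistical tests show it departing from its plate mean; one test alone signals a weak candidate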
Meaning of the calls: active = candidate regulator (raises or lowers reporter); inactive = not a candidate

| gene | reagent | firefly reporter light, replicate 1 | firefly reporter light, replicate 2 | Renilla control light, replicate 1 | Renilla control light, replicate 2 | Outcome |
| --- | --- | --- | --- | --- | --- | --- |
| Grp170 (Grp170 co-chaperone) | 1 | 3815 | 5697 | 1512 | 2864 | inactive |
| salr (spalt-related) | 1 | 3988 | 8138 | 518 | 2770 | inactive |
| CCKLR-17D3 (Cholecystokinin-like receptor at 17D3) | 1 | 26985 | – | 1520 | – | inactive |
| CCKLR-17D3 (Cholecystokinin-like receptor at 17D3) | 2 | 13138 | – | 7584 | – | inactive |
| mei-38 (meiotic 38) | 1 | 24203 | – | 16586 | – | inactive |
| CG18179 | 1 | 6533 | – | 2804 | – | inactive |
| Obp58c (Odorant-binding protein 58c) | 1 | 2674 | 7569 | 624 | 2694 | inactive |
| GPHR (Golgi pH Regulator) | 1 | 8651 | – | 1869 | – | inactive |
| GstD8 (Glutathione S transferase D8) | 1 | 12326 | – | 1585 | – | inactive |
| CG1394 | 1 | 18164 | – | 5904 | – | inactive |
| CG34221 | 1 | 3682 | 10867 | 770 | 3037 | inactive |
| CG15705 | 1 | 5005 | – | 2323 | – | inactive |
| eEF2 (eukaryotic translation elongation factor 2) | 1 | 2134 | 5244 | 552 | 2032 | inactive |
| CG1671 | 1 | 6153 | – | 1512 | – | inactive |
| Obp47a (Odorant-binding protein 47a) | 1 | 3648 | 8896 | 1008 | 3584 | inactive |
| Cog6 (Component of oligomeric golgi complex 6) | 1 | 11660 | – | 2901 | – | inactive |
| UGP (UDP-glucose pyrophosphorylase) | 1 | 8000 | – | 3091 | – | inactive |
| CG30088 | 1 | 2.76e5 | 2.82e5 | 1.16e5 | 1.15e5 | inactive |
| Gr47a (Gustatory receptor 47a) | 1 | 2363 | 6950 | 537 | 2352 | inactive |
| EMC1 (ER membrane protein complex subunit 1) | 1 | 3779 | – | 851 | – | inactive |
| CG6738 | 1 | 18741 | – | 14627 | – | inactive |
| l(2)k09913 (lethal (2) k09913) | 1 | 8842 | – | 2288 | – | inactive |
| E(spl)m5-HLH (Enhancer of split m5, helix-loop-helix) | 1 | 19809 | – | 18368 | – | inactive |
| Tsp66A + CG42661 + CG42660 | 1 | 2426 | 10457 | 1429 | 4141 | inactive |
| Dh31 (Diuretic hormone 31) | 1 | 2429 | 5494 | 733 | 2635 | inactive |
| alien + CG17906 | 1 | 3024 | 7985 | 983 | 3429 | inactive |
| Usp20-33 (Ubiquitin specific protease 20/33) | 1 | 12789 | – | 2720 | – | inactive |
| Zip89B (Zinc/iron regulated transporter-related protein 89B) | 1 | 12691 | – | 3548 | – | inactive |
| CG6583 | 1 | 3097 | 8208 | 915 | 2649 | inactive |

Individual results from the list:
Under “Outcome”, CG1394 is entered as inactive
Value for Usp20-33 (Ubiquitin specific protease 20/33) under “Outcome”: inactive
Result of UGP (UDP-glucose pyrophosphorylase) in “firefly reporter light, replicate 1”: 8000
